Assay results published in patent publication US20220146526A1, “METHOD FOR EVALUATING SAMPLE, ANALYSIS METHOD, METHOD FOR DETECTING DEGRADED SAMPLE, MARKER FOR DETECTING DEGRADED BLOOD PLASMA SAMPLE, AND MARKER FOR DETECTING DEGRADED SERUM SAMPLE” (SHIMADZU CORPORATION, priority 2019, published 2022).

Tests used:
Assay type in all cases: physicochemical, human
[1] = LC/MS of blood plasma sample: time from blood collection to cooling of blood (Table E); details: detection intensity, blood collection to cooling 5 minutes or more vs 1 minute or less
Method: At room temperature, 5 mL of blood from a healthy subject was taken into a blood-collecting vessel containing EDTA, and the blood-collecting vessel was inverted for mixing, then cooled, and allowed to stand at 4° C. Here, in order to investigate how the detection intensity of molecules contained in the sample was affected in a case where the time to cooling was set to 5 minutes or more as compared to that in a case where the time to cooling was set to 1 minute or less, preparations were performed under both the former condition and the latter condition. After standing, the blood sample was subjected to centrifugation under a condition of 4° C., 3000 rpm, and 15 minutes. […] After centrifugation, the blood-collecting vessel was left to stand at room temperature for 30 minutes, and the blood plasma was isolated during this 30 minutes. The obtained blood plasma sample was frozen and stored. Here, in order to investigate how the detection intensity of molecules contained in the sample was affected in cases where freezing and thawing was performed 4 times, 6 times, and 10 times after freezing as compared to that in a case where freezing and thawing was performed 2 times after freezing, freezing and thawing was performed under the respective conditions of 2, 4, 6, and 10 times.
Frozen blood plasma samples and serum samples were subjected to GC/MS or LC/MS. […]

[2] = LC/MS of serum sample: number of times of freezing and thawing (Table M); set-up: key to Rate of increase or decrease: detection intensity relative to 1 at 2 freeze-thaw cycles
Method: (§1) After standing, the blood sample was subjected to centrifugation under a condition of room temperature, 3500 rpm, and 5 minutes. […] After centrifugation, the blood-collecting vessel was left to stand at room temperature, and the serum was isolated during this time. Here, in order to investigate how the detection intensity of molecules contained in the sample was affected in cases where the time during which the blood-collecting vessel was left at room temperature was set to 1 hour and 6 hours as compared to that in a case where the time was set to 30 minutes, preparations were performed under the respective conditions of 30 minutes, 1 hour, and 6 hours. The obtained serum sample was frozen and stored. Here, in order to investigate how the detection intensity of molecules contained in the sample was affected in cases where freezing and thawing was performed 4 times, 6 times, and 10 times after freezing as compared to that in a case where freezing and thawing was performed 2 times after freezing, freezing and thawing was performed under the respective conditions of 2, 4, 6, and 10 times.
(§2) Frozen blood plasma samples and serum samples were subjected to GC/MS or LC/MS. In GC/MS, the blood plasma samples and serum samples were subjected to methoxymation and trimethylsilylation and then introduced to GC-MS.
(§3) Analysis column: Discovery HS F5-3 (inner diameter of 2.1 mm, length of 150 mm, film thickness of 3 μm) (Sigma-Aldrich)
(§4) Column temperature: 40° C.
(§5) (A) 0.1% formic acid (dissolved in water)
(§6) (B) 0.1% formic acid (dissolved in acetonitrile)
(§7) Flow velocity: 0.25 mL/min
(§8) Ionization method: electrospray
(§9) Temperature: • Desolvation Line (DL) temperature: 250° C. • Heat block temperature: 400° C. • Interface temperature: 300° C.
(§10) Gas flow rate: • Nebulizer gas flow rate: 3.0 L/min • Drying gas flow rate: 10.0 L/min • Heating gas flow rate: 10.0 L/min
Mode: multiple reaction monitoring (MRM)
The rate of increase or decrease in Table M is the value of detection intensity relative to 1 that is the detection intensity in a case where the number of times of freezing and thawing is set to 2 times.

[3] = LC/MS of serum sample: time from blood collection to centrifugation (Table J)
Method: as §1, §2, §3, §4, §5, §6, §7, §8, §9, §10
Mode: multiple reaction monitoring (MRM) […]

Structure (SMILES): NCCC[C@H](N)C(=O)O [Ornithine]
- Increase or decrease [1]: Increase
- Rate of increase or decrease ([2]; 10 times of freezing and thawing, detection intensity relative to 1 at 2 times): 1.31
- Number of times when compound is affected ([2]; serum sample, LC/MS, detection intensity changed by 30% or more vs 2 times of freezing and thawing): 10 times
- Increase or decrease ([2]; serum sample, LC/MS, detection intensity vs 2 times of freezing and thawing): Increase
- Rate of increase or decrease ([3]; after 4 hours from blood collection to centrifugation, detection intensity relative to 1 at 15 minutes): 1.48
- Increase or decrease ([3]; serum sample, LC/MS, detection intensity vs 15 minutes from blood collection to centrifugation): Increase
- Time when compound is affected ([3]; serum sample, LC/MS, time from blood collection to centrifugation, detection intensity changed by 30% or more vs 15 minutes): After 4 hours
